This passage reports binding results from publication doi:10.1101/2025.10.14.682031.

The chains behind the UniProt entries cited, without tags or fusion partners.
UniProt P17918: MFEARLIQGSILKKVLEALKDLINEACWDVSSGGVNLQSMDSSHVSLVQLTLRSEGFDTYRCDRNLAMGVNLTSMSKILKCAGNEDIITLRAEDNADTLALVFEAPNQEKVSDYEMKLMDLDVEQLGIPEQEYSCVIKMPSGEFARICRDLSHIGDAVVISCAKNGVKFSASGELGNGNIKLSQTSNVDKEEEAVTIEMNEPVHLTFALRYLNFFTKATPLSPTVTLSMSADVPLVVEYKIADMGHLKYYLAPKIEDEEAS
UniProt Q61510: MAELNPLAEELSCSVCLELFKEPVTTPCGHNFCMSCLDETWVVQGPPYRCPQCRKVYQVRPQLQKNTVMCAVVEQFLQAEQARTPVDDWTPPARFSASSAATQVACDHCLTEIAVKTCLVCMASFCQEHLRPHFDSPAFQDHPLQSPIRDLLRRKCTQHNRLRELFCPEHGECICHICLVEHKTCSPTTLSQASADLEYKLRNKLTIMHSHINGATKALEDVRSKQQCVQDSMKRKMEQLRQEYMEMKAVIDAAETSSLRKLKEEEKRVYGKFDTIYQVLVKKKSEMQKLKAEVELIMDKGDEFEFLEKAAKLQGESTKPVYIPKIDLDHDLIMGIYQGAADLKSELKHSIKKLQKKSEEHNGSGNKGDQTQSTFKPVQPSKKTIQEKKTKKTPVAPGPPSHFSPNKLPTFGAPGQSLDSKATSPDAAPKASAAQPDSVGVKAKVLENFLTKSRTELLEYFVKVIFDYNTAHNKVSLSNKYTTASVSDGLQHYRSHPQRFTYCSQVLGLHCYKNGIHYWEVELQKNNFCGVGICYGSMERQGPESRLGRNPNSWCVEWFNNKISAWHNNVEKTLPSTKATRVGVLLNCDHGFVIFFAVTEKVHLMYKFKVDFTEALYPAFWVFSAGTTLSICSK

Results are given in words; binding and its absence hold for the method and conditions named. In cells and extracts the contact can be indirect. Some entries that bind do so weakly or less than the wild type. For part of these data: Tags and fused reporters may be left off the sequences shown.

Assay [1] concerns the target PCNA (mouse (endogenous in KB1P-G3)) (UniProt P17918). In words: co-IP.
The target in assay [2] is TRIM25 (mouse (endogenous in KB1P-G3)) (UniProt Q61510). Nature of the assay: proximity ligation.
Assay [3] has the same target. In words: co-IP.

B1: Thousand And One Amino Acid Kinase 1 (TAOK1), endogenous in KB1P-G3 NT cells (protein, UniProt Q5F2E8 1-1001)
chain: MPSTNRAGSLKDPEIAELFFKEDPEKLFTDLREIGHGSFGAVYFARDVRTNEVVAIKKMSYSGKQSTEKWQDIIKEVKFLQRIKHPNSIEYKGCYLREHTAWLVMEYCLGSASDLLEVHKKPLQEVEIAAITHGALQGLAYLHSHTMIHRDIKAGNILLTEPGQVKLADFGSASMASPANSFVGTPYWMAPEVILAMDEGQYDGKVDVWSLGITCIELAERKPPLFNMNAMSALYHIAQNESPTLQSNEWSDYFRNFVDSCLQKIPQDRPTSEELLKHMFVLRERPETVLIDLIQRTKDAVRELDNLQYRKMKKLLFQEAHNGPAVEAQEEEEEQDHGVGRTGTVNSVGSNQSIPSMSISASSQSSSVNSLPDASDDKSELDMMEGDHTVMSNSSVIHLKPEEENYQEEGDPRTRASDPQSPPQVSRHKSHYRNREHFATIRTASLVTRQMQEHEQDSELREQMSGYKRMRRQHQKQLMTLENKLKAEMDEHRLRLDKDLETQRNNFAAEMEKLIKKHQAAMEKEAKVMANEEKKFQQHIQAQQKKELNSFLESQKREYKLRKEQLKEELNENQSTPKKEKQEWLSKQKENIQHFQAEEEANLLRRQRQYLELECRRFKRRMLLGRHNLEQDLVREELNKRQTQKDLEHAMLLRQHESMQELEFRHLNTIQKMRCELIRLQHQTELTNQLEYNKRRERELRRKHVMEVRQQPKSLKSKELQIKKQFQDTCKIQTRQYKALRNHLLETTPKSEHKAVLKRLKEEQTRKLAILAEQYDHSINEMLSTQALRLDEAQEAECQVLKMQLQQELELLNAYQSKIKMQAEAQHDRELRELEQRVSLRRALLEQKIEEEMLALQNERTERIRSLLERQAREIEAFDSESMRLGFSNMVLSNLSPEAFSHSYPGASSWSHNPTGGPGPHWGHPMGGTPQAWGHPMQGGPQPWGHPSGPMQGVPRGSSMGVRNSPQALRRTASGGRTEQGMSRSTSVTSQISNGSHMSYT
Consider B1, for which the binding result in assay [1] is listed as “binds”.

B2: HA-tagged TAOK1 (pOZ-Taok1 rescue construct) (protein, UniProt Q5F2E8 1-1001)
chain: B1 chain
As for B2, the binding entry in assay [2] and in assay [3] was “binds” each time.
